The data set can be described thus: Fadometer test for fabric yellowing of aldehyde solutions. The conditions noted are these: 1000 ppm aldehyde solution; 0.75 grams of product on 10 cm × 10 cm swatch; 5 hours simulated sunlight, SUNTEST CPS+ Fadometer.

Each structure is given as a SMILES string.

Take `CCCCC/C(C=O)=C/c1ccccc1` [amylic cinnamic aldehyde]: the “Fadometer Test on treated Fabric” value was “Yellowish brown”. `CC(C)=CCC/C(C)=C/C=O` [citral aldehyde]: the “Fadometer Test on treated Fabric” value was “No yellowing”. As to `CC(C)=CCCC(C)CC=O` (stereo not shown) [citronellal], the “Fadometer Test on treated Fabric” value was “Yellowish brown”. The value for `CCCCCCCCCCCC=O` [lauric aldehyde] was “No yellowing”.

The values are drawn from US9260817B2, “Freshening compositions comprising malodor binding polymers and malodor counteractants” (The Procter & Gamble Company, priority 2009, dated 2016).
